Source: publication PMC13626733, “Molecular basis of high-torque transmission of the Vibrio polar flagellar motor” (Protein & Cell, 2026)

T1: FlgC (Vibrio alginolyticus (endogenous in strain KK148 ΔflgL))
T1 sequence: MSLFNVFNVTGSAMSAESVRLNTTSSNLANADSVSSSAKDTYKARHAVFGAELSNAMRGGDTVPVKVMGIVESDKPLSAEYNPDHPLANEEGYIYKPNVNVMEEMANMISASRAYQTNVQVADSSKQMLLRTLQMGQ

T2: FliF (Vibrio alginolyticus (endogenous in strain KK148 ΔflgL)) (UniProt Q75N27)
T2 sequence: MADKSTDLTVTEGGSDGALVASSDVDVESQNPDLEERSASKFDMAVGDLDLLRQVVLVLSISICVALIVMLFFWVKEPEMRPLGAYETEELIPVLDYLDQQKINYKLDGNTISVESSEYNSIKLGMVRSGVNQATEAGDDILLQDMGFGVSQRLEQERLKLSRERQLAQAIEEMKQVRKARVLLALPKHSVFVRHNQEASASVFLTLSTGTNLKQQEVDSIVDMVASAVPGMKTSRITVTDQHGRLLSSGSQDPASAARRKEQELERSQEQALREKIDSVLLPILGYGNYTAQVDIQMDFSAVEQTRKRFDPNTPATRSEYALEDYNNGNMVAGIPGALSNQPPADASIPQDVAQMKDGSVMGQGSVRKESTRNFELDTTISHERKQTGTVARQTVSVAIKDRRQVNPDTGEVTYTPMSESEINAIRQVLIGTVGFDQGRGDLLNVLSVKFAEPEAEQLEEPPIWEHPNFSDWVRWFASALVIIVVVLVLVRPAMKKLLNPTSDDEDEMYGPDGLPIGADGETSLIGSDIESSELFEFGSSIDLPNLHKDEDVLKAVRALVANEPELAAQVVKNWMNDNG


Columns and labels:
Assay in all cases: cryo-EM structure; polar flagellar motor-hook complex purified as a whole from V. alginolyticus KK148 ΔflgL; local refinements of the LPHT ring, hook, rod, export apparatus and MS ring; LPHT ring particles also obtained by disassembling the complex at reduced salt; both purified
[1] = target: T1, FlgC (Vibrio alginolyticus (endogenous in strain KK148 ΔflgL))
[2] = target: T2, FliF (Vibrio alginolyticus (endogenous in strain KK148 ΔflgL))
[3] = target: FlgF (Vibrio alginolyticus (endogenous in strain KK148 ΔflgL))

Row | Molecule | binding [1] | binding [2] | binding [3]
1 | FlrP | binds | binds | 
2 | FlgB |  | binds | 
3 | FlgG | binds | binds | 
4 | FliE |  | binds | 
5 | FliF (natural protein, UniProt Q75N27 1-580, looked up, FliF, MS ring subunit of the polar flagellar motor, Vibrio alginolyticus; domains RBM2, RBM3, β-collar; extended peptide loops LA, LB, LC; 34 subunits form the MS ring; 23 RBM2 domains seen in the RBM2 subring; also called MS ring protein; FliF peptide loops LA, LB, LC; source: endogenous, purified within the polar flagellar motor-hook complex from V. alginolyticus KK148 ΔflgL) MADKSTDLTVTEGGSDGALVASSDVDVESQNPDLEERSASKFDMAVGDLDLLRQVVLVLSISICVALIVMLFFWVKEPEMRPLGAYETEELIPVLDYLDQQKINYKLDGNTISVESSEYNSIKLGMVRSGVNQATEAGDDILLQDMGFGVSQRLEQERLKLSRERQLAQAIEEMKQVRKARVLLALPKHSVFVRHNQEASASVFLTLSTGTNLKQQEVDSIVDMVASAVPGMKTSRITVTDQHGRLLSSGSQDPASAARRKEQELERSQEQALREKIDSVLLPILGYGNYTAQVDIQMDFSAVEQTRKRFDPNTPATRSEYALEDYNNGNMVAGIPGALSNQPPADASIPQDVAQMKDGSVMGQGSVRKESTRNFELDTTISHERKQTGTVARQTVSVAIKDRRQVNPDTGEVTYTPMSESEINAIRQVLIGTVGFDQGRGDLLNVLSVKFAEPEAEQLEEPPIWEHPNFSDWVRWFASALVIIVVVLVLVRPAMKKLLNPTSDDEDEMYGPDGLPIGADGETSLIGSDIESSELFEFGSSIDLPNLHKDEDVLKAVRALVANEPELAAQVVKNWMNDNG |  |  | binds

Results are given in words; binding and its absence hold for the method and conditions named. Binding can be weak; no strength is given.
